# Laboratory results from PubChem BioAssay (EPA / NIEHS).
# The chains behind the UniProt entries cited, without tags or fusion partners.
# UniProt P04637, whole entry, looked up: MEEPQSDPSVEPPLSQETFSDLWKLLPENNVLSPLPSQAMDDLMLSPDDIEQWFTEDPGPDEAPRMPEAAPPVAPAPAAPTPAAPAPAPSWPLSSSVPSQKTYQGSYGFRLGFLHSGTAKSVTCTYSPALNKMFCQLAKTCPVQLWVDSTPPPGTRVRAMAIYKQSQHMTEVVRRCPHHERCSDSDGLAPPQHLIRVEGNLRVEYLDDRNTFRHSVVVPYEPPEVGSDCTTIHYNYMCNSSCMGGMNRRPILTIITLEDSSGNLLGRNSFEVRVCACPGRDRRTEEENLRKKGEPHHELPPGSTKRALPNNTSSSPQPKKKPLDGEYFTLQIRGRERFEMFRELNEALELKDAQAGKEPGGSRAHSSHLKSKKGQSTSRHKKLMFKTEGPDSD
# The shares of active, inactive and inconclusive entries below differ from those in the screen. Potencies beside an inconclusive call are fits to weak or partial responses and may not hold up. Active and inactive are the calls of the source. How the source made its calls: active means hit-call score of the fitted dose curve at least 0.9, where 1 is the maximum; inconclusive means response in the unintended direction; inactive means score below 0.9.
# Biological target: Cellular tumor antigen p53 (Homo sapiens) (UniProt P04637)
# Test: TOX21_p53_BLA_p4_ratio: Tox21 HCT-116 p53 Agonism Beta-lactamase Assay, Ratio, Phase 4 (AID 2283601)
# How it was run: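 HCT116 cells carrying an inducible beta-lactamase reporter were plated at 4000 cells/well, rested 5 h, then exposed to compounds in DMSO (217-fold dilution) for 16 h at 37C. CCF4-AM substrate was loaded 2 h at room temperature; 460/530 nm emission ratio scored gain-of-signal versus DMSO.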
Compound,AC50,outcome
CCC(=O)C=CC1C(C)=CCCC1(C)C (stereo not given),inconclusive: 46.2 µM,
CC(=O)Nc1cccc(O)c1,inconclusive: 45.9 µM,
CN1CC(=O)N/C1=N/C(=O)Nc1cccc(Cl)c1,inconclusive: 23 µM,
CCCOC(C(=O)OC1CCN(C)CC1)(c1ccccc1)c1ccccc1,inconclusive: 43.3 µM,
Cc1cc(-c2ccccc2)nnc1NCCN1CCOCC1,inconclusive: 15.5 µM,
CCOC(=O)c1ccc(OCCN2C[C@H](O)[C@@H](O)[C@H](O)[C@H]2CO)cc1,inconclusive: 23 µM,
O=C(CCN1CCN2CCCC2C1)N1c2ccccc2Sc2ccc(Cl)cc21 (stereo not given),inconclusive: 23 µM,
COc1cc(C(=O)OC(COCCC(C)C)CN2CCOCC2)cc(OC)c1OC (stereo not given),inconclusive: 23 µM,
C[C@H]1C[C@H]2[C@@H]3CCC4=CC(=O)C=C[C@]4(C)[C@@]3(F)[C@@H](O)C[C@]2(C)[C@@]1(O)C(=O)CCl,inconclusive: 12.7 µM,
O=C1O[C@H]2[C@H](O)[C@@H]1OC(O)[C@H]2O (stereo not given in full),,inactive
Oc1ccccc1C=NCc1ccccc1,,inactive
O=C1CCC(=O)O1,inconclusive: 46.3 µM,
COC(=O)C(c1ccccc1Cl)N1CCc2sccc2C1 (stereo not given),inconclusive: 23 µM,
CCN(CC)CCNC(=O)c1ccc(NS(C)(=O)=O)cc1,inconclusive: 23 µM,
O=C1OC(=O)c2cc([N+](=O)[O-])ccc21,inconclusive: 46 µM,
COc1ccc(N=[N+]([O-])c2ccc(OC)cc2)cc1,inconclusive: 45.7 µM,
N/C(=N\N=Cc1ccc(Cl)cc1)NN=Cc1ccc(Cl)cc1,inconclusive: 23 µM,
CC(C)OCC1CO1 (stereo not given),inconclusive: 45.9 µM,
Nc1ccc(F)cc1F,inconclusive: 46.5 µM,
OC[C@]1(O)OC[C@@H](O)[C@H](O)[C@@H]1O,inconclusive: 23 µM,inactive
C[C@@H]1C\C=C/C=C/C=C/C=C/[C@H](O[C@@H]2O[C@H](C)[C@@H](O)[C@H](N)[C@@H]2O)C[C@@H]2O[C@](O)(C[C@@H](O)C[C@@H]3O[C@@H]3/C=C\C(=O)O1)C[C@H](O)[C@H]2C(=O)O,inconclusive: 23 µM,
C=C(C)C(=O)OCCNC(C)(C)C,inconclusive: 76 µM,
CC1=C(C)C(=O)C(CCCCC#CCCCC#CCO)=C(C)C1=O,,inactive
CN(C)CCOCCN(C)CCO,inconclusive: 46.1 µM,

# Nothing new here: an excerpt of the list.
Compound,AC50,outcome
C[C@@H]1C\C=C/C=C/C=C/C=C/[C@H](O[C@@H]2O[C@H](C)[C@@H](O)[C@H](N)[C@@H]2O)C[C@@H]2O[C@](O)(C[C@@H](O)C[C@@H]3O[C@@H]3/C=C\C(=O)O1)C[C@H](O)[C@H]2C(=O)O,inconclusive: 23 µM,
C=C(C)C(=O)OCCNC(C)(C)C,inconclusive: 76 µM,
